Data reported in the supplement of paper PMC11451515.

Assays:
Details in all cases: 48 h
NOMO1 [1] = test: cell viability relative to DMSO control; higher = less cytotoxic
In short: (§1)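 Three leukemia lines were tested: NOMO1 and SEM at 500 cells/well and P12-Ichikawa at 1000 cells/well. Each was adapted for at least four passages in each medium and seeded in 5 μl in 1536-well plates, and library compounds in DMSO were pin-dosed from 47 μM to 0.79 nM in 11 threefold steps. After 48 h at 37°C, CellTiter-Glo One luminescence was read. Viability is a percentage relative to DMSO wells on each plate, with cell-free wells as background.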

P12-Ichikawa [2] = test: as above
In short: as §1

SEM cells = test: as above
In short: as §1

NOMO1 [3] = test: AUC of viability dose-response curve (% viability x log10 dose units); higher = less sensitive
In short: (§2)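 Library compounds in DMSO were applied for 48 h at 37°C at 11 threefold doses (47 μM to 0.79 nM) to medium-adapted leukemia cells in 1536-well plates holding 500 or 1000 cells/well. Luminescence from CellTiter-Glo One was normalised plate by plate against DMSO and cell-free wells. Area under the curve came from trapezoidal integration of a log-logistic fit, after scaling curves that rose above full viability and discarding those that failed quality control. The fit had four parameters and used log10 doses.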

P12-Ichikawa [4] = test: as above
In short: as §2

Nc1ccc([S+](N)(=O)[O-])cc1
cell viability [%]
Details	NOMO1 [1]	P12-Ichikawa [2]	SEM cells
HPLM + 10% dialyzed FBS, 0.000781 µM	102	105	95.7
HPLM + 10% dialyzed FBS, 0.00234 µM	99.4	110	101
HPLM + 10% dialyzed FBS, 0.00702 µM	124	110	97.2
HPLM + 10% dialyzed FBS, 0.0211 µM	70.9	75.8	36.6
HPLM + 10% dialyzed FBS, 0.0632 µM	119	107	102
HPLM + 10% dialyzed FBS, 0.19 µM	126	107	116
HPLM + 10% dialyzed FBS, 0.569 µM	115	110	88.8
HPLM + 10% dialyzed FBS, 1.71 µM	100	105	40.7
HPLM + 10% dialyzed FBS, 5.12 µM	92.6	105	102
HPLM + 10% dialyzed FBS, 15.4 µM	95.5	106	104
HPLM + 10% dialyzed FBS, 46.1 µM	84.6	77.4	98.3
RPMI 5 mM glucose + 10% FBS, 0.000781 µM	95.1	116	110
RPMI 5 mM glucose + 10% FBS, 0.00234 µM	103	102	111
RPMI 5 mM glucose + 10% FBS, 0.00702 µM	99	110	91.1
RPMI 5 mM glucose + 10% FBS, 0.0211 µM	88.1	70.6	13.2
RPMI 5 mM glucose + 10% FBS, 0.0632 µM	96	101	113
RPMI 5 mM glucose + 10% FBS, 0.19 µM	101	99.9	105
RPMI 5 mM glucose + 10% FBS, 0.569 µM	103	104	104
RPMI 5 mM glucose + 10% FBS, 1.71 µM	93.2	107	17
RPMI 5 mM glucose + 10% FBS, 5.12 µM	91.3	98	96
RPMI 5 mM glucose + 10% FBS, 15.4 µM	95.1	99.3	96.5
RPMI 5 mM glucose + 10% FBS, 46.1 µM	89.8	77.1	78.6
RPMI 5 mM glucose + 10% dialyzed FBS, 0.000781 µM	103	108	105
RPMI 5 mM glucose + 10% dialyzed FBS, 0.00234 µM	100	109	102
RPMI 5 mM glucose + 10% dialyzed FBS, 0.00702 µM	102	104	93.4
RPMI 5 mM glucose + 10% dialyzed FBS, 0.0211 µM	72.2	71.6	25
RPMI 5 mM glucose + 10% dialyzed FBS, 0.0632 µM	99.9	110	104
RPMI 5 mM glucose + 10% dialyzed FBS, 0.19 µM	107	102	98
RPMI 5 mM glucose + 10% dialyzed FBS, 0.569 µM	109	103	91.5
RPMI 5 mM glucose + 10% dialyzed FBS, 1.71 µM	107	92	49.7
RPMI 5 mM glucose + 10% dialyzed FBS, 5.12 µM	93.7	88.9	101
RPMI 5 mM glucose + 10% dialyzed FBS, 15.4 µM	93.2	90.1	110
RPMI 5 mM glucose + 10% dialyzed FBS, 46.1 µM	92.1	78.8	82.5

AUC of viability dose-response curve
Details	HPLM + 10% dialyzed FBS	RPMI 5 mM glucose + 10% FBS	RPMI 5 mM glucose + 10% dialyzed FBS
NOMO1 [3]	461	458	468
P12-Ichikawa [4]	471	443	453

N[S+](=O)([O-])c1cc(C(=O)O)c(NCc2ccco2)cc1Cl
cell viability [%]
Details	NOMO1 [1]	P12-Ichikawa [2]	SEM cells
HPLM + 10% dialyzed FBS, 0.000781 µM	101	94.6	39.2
HPLM + 10% dialyzed FBS, 0.00234 µM	107	85.4	80.3
HPLM + 10% dialyzed FBS, 0.00702 µM	108	78.8	98.2
HPLM + 10% dialyzed FBS, 0.0211 µM	97.3	97.5	93.6
HPLM + 10% dialyzed FBS, 0.0632 µM	86.3	97	79.8
HPLM + 10% dialyzed FBS, 0.19 µM	90.8	92.3	82.7
HPLM + 10% dialyzed FBS, 0.569 µM	95.3	76	84.2
HPLM + 10% dialyzed FBS, 1.71 µM	71.7	71.1	73.9
HPLM + 10% dialyzed FBS, 5.12 µM	80.7	82.7	96.5
HPLM + 10% dialyzed FBS, 15.4 µM	74.4	73.9	23.4
HPLM + 10% dialyzed FBS, 46.1 µM	63	82.2	85.5
RPMI 5 mM glucose + 10% FBS, 0.000781 µM	74	86.9	50.9
RPMI 5 mM glucose + 10% FBS, 0.00234 µM	73.2	90.3	101
RPMI 5 mM glucose + 10% FBS, 0.00702 µM	77.8	91.9	111
RPMI 5 mM glucose + 10% FBS, 0.0211 µM	77.6	83.5	115
RPMI 5 mM glucose + 10% FBS, 0.0632 µM	88.8	89.7	68.9
RPMI 5 mM glucose + 10% FBS, 0.19 µM	75.2	94.2	91.5
RPMI 5 mM glucose + 10% FBS, 0.569 µM	78.4	86.2	82.5
RPMI 5 mM glucose + 10% FBS, 1.71 µM	77.8	81.2	74.9
RPMI 5 mM glucose + 10% FBS, 5.12 µM	82.1	88.5	114
RPMI 5 mM glucose + 10% FBS, 15.4 µM	79.1	70.5	17.7
RPMI 5 mM glucose + 10% FBS, 46.1 µM	84	79.6	86.7
RPMI 5 mM glucose + 10% dialyzed FBS, 0.000781 µM	95.3	78	40.9
RPMI 5 mM glucose + 10% dialyzed FBS, 0.00234 µM	85.2	77.5	91.2
RPMI 5 mM glucose + 10% dialyzed FBS, 0.00702 µM	86.1	79.6	112
RPMI 5 mM glucose + 10% dialyzed FBS, 0.0211 µM	86.2	84.5	96.3
RPMI 5 mM glucose + 10% dialyzed FBS, 0.0632 µM	93.1	82.3	71.4
RPMI 5 mM glucose + 10% dialyzed FBS, 0.19 µM	96	81.7	99.1
RPMI 5 mM glucose + 10% dialyzed FBS, 0.569 µM	82.6	85.8	90.5
RPMI 5 mM glucose + 10% dialyzed FBS, 1.71 µM	82.5	77.5	77.5
RPMI 5 mM glucose + 10% dialyzed FBS, 5.12 µM	81.9	80.2	111
RPMI 5 mM glucose + 10% dialyzed FBS, 15.4 µM	82.1	71.2	14
RPMI 5 mM glucose + 10% dialyzed FBS, 46.1 µM	78.7	80.4	92.3

P12-Ichikawa [4]
Details	AUC of viability dose-response curve
HPLM + 10% dialyzed FBS	404
RPMI 5 mM glucose + 10% FBS	410
RPMI 5 mM glucose + 10% dialyzed FBS	382
